Assay results published in PubChem BioAssay AID2685 (National Center for Advancing Translational Sciences (NCATS), 2010).
The other results are listed elsewhere or left out. Shown are side measurements of this screen, not its main read-out; they come without a call. The list favours compounds with an active or inconclusive main result. Potencies come from curve fits of mixed quality, noted in brackets.

Test: qHTS Assay for Lipid Storage Modulators in Drosophila S3 Cells;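 as to cell number change: cells counted by Cell Tracker Red CMTPX staining in the red channel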
Settings: BODIPY lipid droplet fluorescence, 18-24 h; for cell number change: measured here: cell count max response, cells fed with added oleic acid
Procedure, shortened: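 Drosophila S3 cells loaded with oleic acid (400 uM, as added) and compounds at several concentrations; lipid droplets imaged by 488-nm laser-scanning cytometry, 500–530 nm intensity and object ratio to cell channel. Percent activity normalized to 20 uM Triacsin C.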

[1] = measured here: lipid fluorescence (Fed channel) AC50, cells fed with added oleic acid
[2] = measured here: cell number channel AC50, cells fed with added oleic acid

| Compound | cell number change | AC50 [1] | AC50 [2] |
| --- | --- | --- | --- |
| N#Cc1ccccc1NC(=S)NC(=O)c1cccs1 | 12.1% |  |  |
| CCN(CC)S(=O)(=O)c1ccc(C(=O)OCC(=O)N2CCOCC2)cc1 | 19.1% | 6.51 µM [falling, single point] |  |
| Nc1c(C(=O)O)cnc2c(-c3ccc(Cl)cc3)cnn12 | -24.6% |  | 0.13 µM [rising, full curve, poor fit] |
| COc1cc(C(=O)NC2Cc3ccccc3C2)ccc1OC1CCN(C(C)=O)CC1 | 24.4% |  |  |
| CN(C)/C=C/c1oc2ccc(O)cc2c1[N+](=O)[O-] |  |  | 0.0651 µM [rising, full curve, poor fit] |
| CC(OC(=O)c1nsc(Cl)c1Cl)C(=O)NC1CCCCC1 (stereo not drawn) | 53.8% | 0.116 µM [falling, single point] | 32.6 µM [rising, partial curve, poor fit] |
| CC1(C)C2CC=C(/C=N/NC(=S)Nc3cccnc3)C1C2 (stereo not drawn) | 0.261% | 0.0517 µM [falling, full curve, poor fit] | 0.326 µM [falling, partial curve, poor fit] |
| CCc1ccc2[nH]c3nc(C)cc(C)c3c(=O)c2c1 |  | 0.461 µM [rising, single point] |  |
| Cc1cccc(NC(=O)CN(C)S(=O)(=O)c2cnc[nH]2)c1 | -18.4% |  |  |
| Cc1c(NC(=O)C(C)OC(=O)c2cccc(S(=O)(=O)N(C)C)c2)c(=O)n(-c2ccccc2)n1C (stereo not drawn) | 12.9% |  | 6.51 µM [rising, single point] |
| O=C1C(Nc2ccccc2)=C2CCCC=C2N1c1ccccc1 | -33.8% |  | 2.31 µM [falling, partial curve] |
| Cc1cccn2c(=O)c3cc(C(=O)NC4CCCCC4)c(=N)n(CCN4CCOCC4)c3nc12 | 13.3% |  |  |
| CC(C)COC(=O)CNc1n[nH]c(=S)[nH]c1=O | 15.3% |  |  |
| CCCCn1c(=O)[nH]c(=O)c2c1nc(-c1ccc(OC(F)F)c(OC)c1)n2C | -21% |  | 0.0291 µM [falling, full curve, poor fit] |
| O=C(Nc1nc(-c2cccc3ccccc23)cs1)c1cnccn1 | -35.3% | 29.1 µM [falling, single point] | 29.1 µM [falling, single point] |
| C=CCSc1nnc(-c2ccc(Cl)cc2Cl)o1 | -25.8% | 29.1 µM [rising, single point] |  |
| COc1cccc2[nH]c3c(=O)n(CCN(C)C)cnc3c12 | -15.9% | 6.51 µM [falling, single point] |  |
| Cc1cccc(C)c1NC(=O)CNC(=O)CCC(=O)N1CCOCC1 |  | 6.51 µM [falling, single point] |  |
| O=C(Cc1ccccc1)Nc1scc(-c2ccccc2)c1C(=O)N1CCOCC1 | -60.6% | 0.651 µM [falling, single point] | 29.1 µM [falling, single point] |
| O=C(NNC(=O)C1CCN(C(=O)Nc2ccccc2)CC1)c1ccc([N+](=O)[O-])cc1 | -46.1% | 29.1 µM [rising, single point] | 0.92 µM [falling, full curve, poor fit] |
| CC1CCN(C2=C(NS(=O)(=O)c3ccc(Cl)cc3)C(=O)c3ccccc3C2=O)CC1 | -87.8% | 6.51 µM [falling, partial curve] | 5.8 µM [falling, full curve] |

| Compound | cell number change | AC50 [1] | AC50 [2] |
| --- | --- | --- | --- |
| CCn1c(=O)c2cc(C(=O)Nc3cc(C)on3)sc2c2ccccc21 | 5.35% | 0.103 µM [rising, full curve] |  |
| COc1ccc(OC)c(C(=O)c2oc3ccccc3c2NC(C)=O)c1 | -4.04% | 1.84 µM [rising, partial curve, poor fit] | 0.82 µM [rising, full curve] |
| CN(C(=O)CCNC(=O)Cn1cnc2ccccc2c1=O)c1ccc(F)cc1 | -13% |  |  |
| Cc1ccc(S(=O)(=O)/N=C(/Nc2cccc3ccccc23)c2ccc(F)cc2)cc1 | -2.29% | 29.1 µM [rising, single point] |  |
| COc1ccc(NS(=O)(=O)c2ccc(OC)c(NC(=O)CNC(=O)c3ccc(OC)cc3)c2)cc1 | 4.32% | 0.0259 µM [falling, full curve, poor fit] | 0.0058 µM [falling, full curve, poor fit] |
| CC[N+]1(C)CCC(=C2c3ccccc3CC(=O)c3sccc32)CC1 (stereo not drawn) | -6.67% | 0.00461 µM [falling, full curve, poor fit] |  |
| CCn1c(=O)c2ccccc2n2c(SCC(=O)NCc3cccs3)nnc12 | 12.1% |  |  |
| O=C(Nc1ccc2[nH]ncc2c1)c1ccccc1Cl | -5.8% |  |  |
| CCCS(=O)(=O)C/C(N)=N/OC(=O)c1ccc(Cl)cc1 | -3.95% |  |  |
| O=C1Cc2cc(S(=O)(=O)Nc3cccc([N+](=O)[O-])c3)cc3c2N1CCC3 |  |  | 0.651 µM [falling, single point] |
| COc1ccc(Cl)cc1S(=O)(=O)N(C)CC(=O)NCCCn1ccnc1 | -8.97% |  |  |
| Cc1nn(C)c(Oc2cccc(Cl)c2)c1C#N | -36.4% | 0.092 µM [falling, full curve] | 1.3 µM [falling, full curve] |
| Cc1c(/C=N\NC(=O)c2ccc(F)cc2)cnn1C | 32% |  | 0.00461 µM [rising, full curve, poor fit] |
| O=C(CN(C(=O)c1csnn1)c1cccc(Cl)c1)NC1CCCC1 | 5.13% | 5.17 µM [rising, single point] |  |
| Cc1cccn2c(=O)c(C=NCc3ccccc3)c(NCCO)nc12 | -12.8% | 32.6 µM [falling, single point] |  |
| CCOC(=O)c1[nH]c2ccc(OC)cc2c1NC(=O)CCN1CCCC(C)C1 (stereo not drawn) | -7.09% |  |  |
| COC(=O)c1[nH]c(C)c(/C(O)=C2\C(=O)C(=O)N(CCN(C)C)C2c2ccc(C)o2)c1C (stereo not drawn) | 13.5% | 16.4 µM [rising, partial curve] |  |
| O=C1CC(c2ccc3c(c2)OCCO3)Oc2ccc([N+](=O)[O-])cc21 (stereo not drawn) |  | 5.8 µM [falling, full curve] |  |
| Cc1cccn2c(=O)c(C=O)c(N3CCN(C)CC3)nc12 | 25.5% | 6.51 µM [falling, single point] |  |
| Cc1cccc(OCc2n(CC(=O)OC3CC(C)CCC3C(C)C)c3ccccc3[n+]2C)c1 (stereo not drawn) | -66.5% | 29.1 µM [falling, single point] | 18.4 µM [falling, single point] |
| Cc1ccnc(NC(=O)c2ccoc2C)c1 | 19.3% | 10.3 µM [rising, partial curve] |  |

Random excerpt: 4 compounds from above

| Compound | cell number change | AC50 [1] | AC50 [2] |
| --- | --- | --- | --- |
| CCn1c(=O)c2ccccc2n2c(SCC(=O)NCc3cccs3)nnc12 | 12.1% |  |  |
| O=C(CN(C(=O)c1csnn1)c1cccc(Cl)c1)NC1CCCC1 | 5.13% | 5.17 µM [rising, single point] |  |
| O=C1Cc2cc(S(=O)(=O)Nc3cccc([N+](=O)[O-])c3)cc3c2N1CCC3 |  |  | 0.651 µM [falling, single point] |
| Cc1c(/C=N\NC(=O)c2ccc(F)cc2)cnn1C | 32% |  | 0.00461 µM [rising, full curve, poor fit] |

Carrying on.

| Compound | cell number change | AC50 [1] | AC50 [2] |
| --- | --- | --- | --- |
| O=C(N/N=C/c1ccncc1)c1cccc(S(=O)(=O)N2CCCC2)c1 |  | 6.51 µM [falling, single point] | 2.59 µM [falling, partial curve] |
| COc1ccc(N2CCN(C(=O)CN3CCN(c4nc(-c5ccc(F)cc5)cs4)CC3)CC2)cc1 | -63.5% | 29.1 µM [falling, single point] | 14.6 µM [falling, partial curve] |
| CCOCCCNC(=O)C1CCC(CNS(=O)(=O)c2ccc(F)cc2)CC1 (stereo not drawn) | -13.2% | 3.66 µM [falling, partial curve, poor fit] |  |
| O=C(NCC1CCCO1)c1ccc(CS(=O)(=O)c2ccc(Br)cc2)o1 (stereo not drawn) | 10.5% |  | 0.103 µM [rising, full curve, poor fit] |
| Cc1nc2ccccc2nc1N/N=C/c1ccc(O)cc1O | -32.6% | 29.1 µM [falling, single point] | 20.6 µM [falling, single point] |
| CCCCN1C2CCCC1CC(NC(=O)c1cccc(OC)c1)C2 (stereo not drawn) | 8.8% | 6.51 µM [rising, single point] |  |
| Cc1ncc([N+](=O)[O-])n1CC(=O)NC1CCCC1 | -58.4% | 0.326 µM [falling, full curve] | 0.291 µM [falling, full curve] |
| CCOc1ccccc1C1CC(=O)NC(SCC(=O)Nc2nccs2)=C1C#N (stereo not drawn) |  |  | 0.0326 µM [rising, full curve, poor fit] |
| COc1ccc(NS(=O)(=O)c2ccc(C)c(C(=O)N(C)Cc3ccc(C)cc3)c2)cc1 | 85.9% |  | 6.51 µM [rising, full curve] |
| CCOc1ccc2[nH]c3c(NCCN(CC)CC)ncnc3c2c1 |  | 6.51 µM [rising, single point] | 6.51 µM [rising, single point] |
| c1ccc(-c2cc3c(nn2)CCc2nonc2-3)cc1 |  | 0.731 µM [rising, single point] |  |
| O=C(O)c1ccc(OS(=O)(=O)c2ccc(Cl)s2)c(Cl)c1 | -0.889% | 11.6 µM [rising, partial curve, poor fit] |  |
| COc1ccc(-n2cc3ccc([N+](=O)[O-])cc3n2)cc1 |  | 6.51 µM [rising, single point] | 0.58 µM [rising, partial curve, poor fit] |
| CC(Oc1ccc(Cl)cc1)C(=O)NNC(=S)NC(=O)c1ccco1 (stereo not drawn) | -4.7% |  |  |
| Cc1cc(C)n(S(=O)(=O)c2ccc(C)c(C)c2)n1 | -4.76% |  |  |
| CNC(=S)Nc1sc2c(c1C(=O)OC)CCC2 | -8.39% |  |  |
| O=C(Nc1ccsc1C(=O)O)c1ccccc1Cl |  |  | 3.26 µM [falling, single point] |
| COc1ccc(S(=O)(=O)NCCc2c[nH]c3ccc(C)cc23)cc1 | -7.02% | 29.1 µM [falling, single point] |  |
| O=C(NCc1ccco1)c1ccc(Cn2c(=O)c3sccc3n(Cc3ccc(F)cc3)c2=O)cc1 | -37.9% | 0.291 µM [rising, partial curve] |  |
